The values below come from PMC7819943, “Rice protein-binding microarrays: a tool to detect cis-acting elements near promoter regions in rice”.

Protein sequences, listed by entry. Tags and fused reporters are not part of them.
UniProt Q0JBA9, entry or part of it: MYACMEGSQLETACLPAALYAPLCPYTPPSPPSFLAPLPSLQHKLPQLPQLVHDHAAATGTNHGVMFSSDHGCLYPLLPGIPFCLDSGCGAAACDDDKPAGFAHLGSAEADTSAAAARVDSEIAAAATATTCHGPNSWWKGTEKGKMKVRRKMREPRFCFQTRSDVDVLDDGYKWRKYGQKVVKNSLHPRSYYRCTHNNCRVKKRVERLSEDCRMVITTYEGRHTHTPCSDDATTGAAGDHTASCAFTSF

The other results are listed elsewhere or left out.

This assay concerns the target OsWRKY34 (Oryza sativa, UniProt Q0JBA9 1-250). Nature of the assay: protein-binding microarray (RPBM); PBS, 2% BSA, 51.3 ng/ul salmon testes DNA, 50 uM zinc acetate, 200 nM TF, 25 C, 1 h; high values mean tight binding. The note with it: protein: recombinant; tags: N-terminal polyhistidine and DsRed monomer fusion (pET32a); label: CyDye5-dUTP incorporated in the synthesized complementary strand; 3' TTTTT single-stranded linker to array surface; dsDNA, one strand shown. In short, it runs like this:
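Transcription factors, each fused N-terminally to a polyhistidine tag and DsRed, were expressed in E. coli BL21-CodonPlus and purified on Ni–NTA. A custom Agilent array was made double-stranded by primer extension with Cy5-dUTP and blocked with 2% BSA. It was incubated with 200 nM protein in PBS, 2% BSA, salmon testes DNA and 50 µM zinc acetate at 25 °C for 1 h, then washed. The binding signal is per-feature fluorescence intensity (arbitrary units) read on an Axon 4000B scanner.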
As to “CACTTCTATTGGTTCTTTGTCTGGGAGTAGCAGCATAAGTCGGAGTCACCTAGTGCAG”, the binding signal was 8540 fluorescence intensity (a.u.). The result for “ATTTCTTGTTGGCTTCTCGATAAAATCAATCAGGTTTCAACGGAGTCACCTAGTGCAG” reads 10200 fluorescence intensity (a.u.). The result for “ACCGCCCTTGCCTCGGCCCGGCCCATCGTCGTGCCAGGTCCGGAGTCACCTAGTGCAG” reads 8410 fluorescence intensity (a.u.); that for “GATTAATTCACTACTGCTTCCTCCATGTCATATTATAAGACGGAGTCACCTAGTGCAG”, 8490 fluorescence intensity (a.u.). The result for “ATTCTCTCTTCTTCCGTTCTTCTCTATGATTTCTATATAACGGAGTCACCTAGTGCAG” reads 8690 fluorescence intensity (a.u.). As to “CAATCTCCTCAATCCTCTTCTTCTCAGACACATGATTTTACGGAGTCACCTAGTGCAG”, the binding signal is 8980 fluorescence intensity (a.u.). The result for “CTAATTTATTCCCTGCAACATTCCATTCCGTTAACTTGCACGGAGTCACCTAGTGCAG” reads 9500 fluorescence intensity (a.u.); that for “GCCGAGCAGTAATTATGTTTTGCTCGATCCATCCATCAATCGGAGTCACCTAGTGCAG”, 8700 fluorescence intensity (a.u.); that for “CATGCCCCAGGTGCATATATATGCTAATTACACCACCTAACGGAGTCACCTAGTGCAG”, 8760 fluorescence intensity (a.u.).

“TTATCGTCTTTTCTTTGGCTGCTGTCATGAGGACATGTCTCGGAGTCACCTAGTGCAG”: the binding signal was 8680 fluorescence intensity (a.u.). Consider “CTTTTTACTTGCACTGTTTGACTACTCATCTTATTTAAAACGGAGTCACCTAGTGCAG”, for which the binding signal is 14100 fluorescence intensity (a.u.). Regarding “TCTGGGCTCTCTTTCCTTAGTTCGTCTTCATCTGCCCATCCGGAGTCACCTAGTGCAG”, the binding signal was 8850 fluorescence intensity (a.u.).

Regarding “CGCCGCCATCGCCGTCCTCCTCCACCGCGTCGCCGACGGCCGGAGTCACCTAGTGCAG”, the binding signal is 8260 fluorescence intensity (a.u.).

In the case of “TTCTAAAATTTTGTACGTATCTATCTACCAGTGTCACTTACGGAGTCACCTAGTGCAG”, the binding signal was 9810 fluorescence intensity (a.u.).

Consider “GTTCAATTTTGTCATAATCGGCTGCTTCTTCGCTTCAATTCGGAGTCACCTAGTGCAG”, for which the binding signal was 9190 fluorescence intensity (a.u.). The result for “CTCCGCCTCCACGACCGACTGCCGCCGCTCGTCCGCGCCTCGGAGTCACCTAGTGCAG” reads 9510 fluorescence intensity (a.u.). As to “TACTTCCTAGCTTCATATTACATCAGTTTCATGTATCTTGCGGAGTCACCTAGTGCAG”, the binding signal is 11500 fluorescence intensity (a.u.). The result for “GACCGTTGCATTGACATCCTTTTCTTTTTGGTAAATTTTGCGGAGTCACCTAGTGCAG” reads 9590 fluorescence intensity (a.u.); that for “TTCCAAACTCACCTCTGTTTTCTTCACGCGCATACTTTTCCGGAGTCACCTAGTGCAG”, 9260 fluorescence intensity (a.u.). The result for “AACAGTTTTGCCACTTCTTTACCTATTTTTTTACAGTAAACGGAGTCACCTAGTGCAG” reads 10400 fluorescence intensity (a.u.); that for “ATTCTTCGCTGCGCGGCTGCGCGCGCGCCATCTCGCTGATCGGAGTCACCTAGTGCAG”, 12400 fluorescence intensity (a.u.).

Regarding “CACTCCGTCCATTTACAAATAACTGATGAATTTGTCTTTTCGGAGTCACCTAGTGCAG”, the binding signal is 8400 fluorescence intensity (a.u.).

On to “CTTCTTTCTACTACCTTTATCCTAGAAAGAACATCTTTCTCGGAGTCACCTAGTGCAG”, for which the binding signal was 8560 fluorescence intensity (a.u.). The result for “AAGTTAAATTGACAATCCTACCTGCTCGTCAAATTTCAACCGGAGTCACCTAGTGCAG” reads 8520 fluorescence intensity (a.u.); that for “CATCGCATCGGGCAAGTCCTACAGCCATATCCTCCAGTTCCGGAGTCACCTAGTGCAG”, 8780 fluorescence intensity (a.u.). The result for “TTCCGGCATATGTAGGCCGATCGGTTGACTTGTCACGTCCCGGAGTCACCTAGTGCAG” reads 10000 fluorescence intensity (a.u.); that for “CACTTTTACTGCTACACCCGTATGCGGGGATGGGGATGGTCGGAGTCACCTAGTGCAG”, 12700 fluorescence intensity (a.u.). In the case of “GACAAACCCTGAGTTTCCGTGCCCAACGTTTGACCATCAGCGGAGTCACCTAGTGCAG”, the binding signal is 8660 fluorescence intensity (a.u.). The result for “ATGTGTCCAAATCTGAATGCATGGGCTACTCACACGACTCCGGAGTCACCTAGTGCAG” reads 8480 fluorescence intensity (a.u.); that for “CCGGACTCCAGCCAATTCTTGCTCTGTTCCCGCGACAATCCGGAGTCACCTAGTGCAG”, 8280 fluorescence intensity (a.u.). The result for “ATCCCCTCCATTATGGGCCCTACCCGCGGCATCTCCTCGTCGGAGTCACCTAGTGCAG” reads 8180 fluorescence intensity (a.u.). The result for “GTGGGATTAGGATTGGAAAATGAATGAAGGGTTAGAATTACGGAGTCACCTAGTGCAG” reads 8560 fluorescence intensity (a.u.). On to “GCAGCTAAGTGGCATATCTTCGCCTCGCCGTCCCCACCCACGGAGTCACCTAGTGCAG”, for which the binding signal was 8140 fluorescence intensity (a.u.). The result for “CCCTTTACACTTGCTTATCCAGTCATAGTTGCCTTACCAGCGGAGTCACCTAGTGCAG” reads 9100 fluorescence intensity (a.u.). Turning to “ATTTGGTGTGATGCTTTTTGGAAAAAAATTTGGATACTAACGGAGTCACCTAGTGCAG”, the binding signal is 8680 fluorescence intensity (a.u.). Turning to “GTCTCAAAGATCTGACTGATTTTCTCCCTGCATCTCTTGCCGGAGTCACCTAGTGCAG”, the binding signal is 8570 fluorescence intensity (a.u.). The result for “GCAGCCAAGCTGAGATATCCTCCTGTGTGTTCTCCCGTTCCGGAGTCACCTAGTGCAG” reads 8780 fluorescence intensity (a.u.). The result for “AAGCCAATTAACACTGCTATTATTTCTGTTATTATATTATCGGAGTCACCTAGTGCAG” reads 8300 fluorescence intensity (a.u.); that for “CACACACACATCCACACATATCTTTGGCTTCTCGTCTACACGGAGTCACCTAGTGCAG”, 9680 fluorescence intensity (a.u.).

Consider “CTCGATACGCATCACATTTCTCACTTATTTGCTTTAGAGGCGGAGTCACCTAGTGCAG”, for which the binding signal is 9630 fluorescence intensity (a.u.).

As for “ATCGTCACCTATATAATCTATATATCCCCAACGTTTGCATCGGAGTCACCTAGTGCAG”, the binding signal is 8250 fluorescence intensity (a.u.).

“CGAATGGTCAAACATGTAGAAAAAAGTCAACGGTGTCATCCGGAGTCACCTAGTGCAG”: the binding signal is 16900 fluorescence intensity (a.u.).
